Reference: US20220204560A1 (L-BASE CO., LTD., priority 2019, published 2022)
End groups of sequences in plain letters are not given here. Strings that start with PEPTIDE1 are HELM notation: dots part the residues, brackets hold end groups and non-standard residues.

Assay: peptide made by a vendor (Fmoc solid-phase peptide synthesis; 2-chlorotrityl resin)
Settings: whole synthesis, 220 nm

Substance | purity (crude or final not stated) [%]
AQTITGKT (Oligopeptide #1 AQTITGKT) | 97.6
AQTLTGKT | 97.36
PEPTIDE1{A.Q.T.A.T.G.K.T}$$$$V2.0 | 97.8
PEPTIDE1{A.Q.T.M.T.G.K.T}$$$$V2.0 | 96.5
PEPTIDE1{A.Q.T.P.T.G.K.T}$$$$V2.0 | 97.6
PEPTIDE1{A.Q.T.V.T.G.K.T}$$$$V2.0 | 97.6
